# Source: PubChem BioAssay AID1053209 (Peter MacCallum Cancer Centre, 2014)
# Purpose: 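Follow-up of single siRNAs that strengthen doxorubicin killing in osteosarcoma cells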 (follow-up of hits)
# Cell system: mouse primary osteosarcoma cells
# Reagent: single siRNA against mouse genes, 25 nM (text also states 40 nM)
# Time to read-out: about 120 h (48 h before drug, then 72 h with drug)
# Treatment: doxorubicin 100 nM (about IC30-40), added 48 h after transfection, for 72 h
# Measurement: 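ATP-based luminescent viability, with or without doxorubicin, relative to non-targeting control NT1, mean of two replicates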
# Reading the numbers: viability with doxorubicin, vs NT1: higher = more viable cells under doxorubicin; viability ratio, doxorubicin over no drug: higher = less sensitisation to doxorubicin; viability without drug, vs NT1: higher = more viable cells without drug
# Call rule: 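Counted as active (class LC dox) if viability falls to 0.7 of NT1 or below under doxorubicin but stays within 0.7 to 1.1 without drug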
# The whole screen tested about 1,580 reagents; shown is a random part of them. Over the whole deposit, 207 (13%) got an active call. 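Rows are single siRNAs; four siRNAs per gene were tested, a gene counting as confirmed only when at least two agree.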 The numbers tell different reagents against one gene apart.
target gene,siRNA no.,combined effect class,"viability with doxorubicin, vs NT1","viability ratio, doxorubicin over no drug","viability without drug, vs NT1",outcome
Ccdc178 (coiled coil domain containing 178),1,low viability only with doxorubicin; normal without drug,0.6,0.73,0.82,active
Ccdc178 (coiled coil domain containing 178),2,high viability only with doxorubicin,1.14,1.12,1.02,inactive
Ccdc178 (coiled coil domain containing 178),3,normal viability with and without drug,0.98,0.98,1,inactive
Ccdc178 (coiled coil domain containing 178),4,normal viability with and without drug,0.86,0.91,0.94,inactive
Crnkl1 (crooked neck pre-mRNA splicing factor 1),1,low viability with and without drug,0.6,1,0.6,inactive
Crnkl1 (crooked neck pre-mRNA splicing factor 1),2,normal viability with and without drug,0.94,1.08,0.87,inactive
Crnkl1 (crooked neck pre-mRNA splicing factor 1),3,low viability with and without drug,0.31,0.61,0.51,inactive
Crnkl1 (crooked neck pre-mRNA splicing factor 1),4,low viability with and without drug,0.2,0.51,0.39,inactive
Birc2 (baculoviral IAP repeat-containing 2),1,normal viability with and without drug,1.06,1.09,0.97,inactive
Birc2 (baculoviral IAP repeat-containing 2),2,normal viability with and without drug,0.9,0.9,1,inactive
Birc2 (baculoviral IAP repeat-containing 2),3,normal viability with and without drug,0.99,0.97,1.02,inactive
Birc2 (baculoviral IAP repeat-containing 2),4,normal viability with and without drug,0.92,0.99,0.93,inactive
Unc5d (unc-5 netrin receptor D),1,normal viability with and without drug,1,1.02,0.98,inactive
Unc5d (unc-5 netrin receptor D),2,normal viability with and without drug,0.82,0.86,0.95,inactive
Unc5d (unc-5 netrin receptor D),3,normal viability with and without drug,1.07,0.99,1.08,inactive
Unc5d (unc-5 netrin receptor D),4,normal viability with and without drug,1,1.08,0.93,inactive
Swi5 (SWI5 recombination repair homolog (yeast)),1,normal viability with and without drug,1.06,1.02,1.04,inactive
Swi5 (SWI5 recombination repair homolog (yeast)),2,high viability only with doxorubicin,1.1,1.05,1.05,inactive
Swi5 (SWI5 recombination repair homolog (yeast)),3,normal viability with and without drug,1.04,1.01,1.03,inactive
Swi5 (SWI5 recombination repair homolog (yeast)),4,normal viability with and without drug,0.78,0.8,0.97,inactive
Rassf2 (Ras association (RalGDS/AF-6) domain family member 2),1,normal viability with and without drug,0.98,0.93,1.05,inactive
Rassf2 (Ras association (RalGDS/AF-6) domain family member 2),2,normal viability with and without drug,0.92,0.94,0.98,inactive
Rassf2 (Ras association (RalGDS/AF-6) domain family member 2),3,normal viability with and without drug,0.82,0.87,0.94,inactive
Rassf2 (Ras association (RalGDS/AF-6) domain family member 2),4,normal viability with and without drug,1.07,1.05,1.02,inactive
Rps10 (ribosomal protein S10),1,normal viability with and without drug,0.94,1.09,0.86,inactive
Rps10 (ribosomal protein S10),2,low viability with and without drug,0.69,1.01,0.68,inactive
Rps10 (ribosomal protein S10),3,normal viability with and without drug,1.06,1.1,0.96,inactive
Rps10 (ribosomal protein S10),4,high viability only with doxorubicin,1.23,1.18,1.04,inactive
"Tnfrsf1a (tumor necrosis factor receptor superfamily, member 1a)",1,normal viability with and without drug,0.96,1.02,0.94,inactive
"Tnfrsf1a (tumor necrosis factor receptor superfamily, member 1a)",2,normal viability with and without drug,0.94,1.01,0.93,inactive
"Tnfrsf1a (tumor necrosis factor receptor superfamily, member 1a)",3,normal viability with and without drug,1.05,1.11,0.95,inactive
"Tnfrsf1a (tumor necrosis factor receptor superfamily, member 1a)",4,high viability only without drug,1.08,0.98,1.1,inactive
Gabarapl2 (GABA type A receptor associated protein like 2),1,normal viability with and without drug,0.96,0.95,1.01,inactive
Gabarapl2 (GABA type A receptor associated protein like 2),2,normal viability with and without drug,0.76,0.85,0.89,inactive
Gabarapl2 (GABA type A receptor associated protein like 2),3,normal viability with and without drug,0.84,0.92,0.91,inactive
Gabarapl2 (GABA type A receptor associated protein like 2),4,normal viability with and without drug,0.82,0.91,0.9,inactive
Psma4 (proteasome subunit alpha 4),1,low viability with and without drug,0.34,0.52,0.66,inactive
Psma4 (proteasome subunit alpha 4),2,low viability with and without drug,0.35,0.58,0.6,inactive
Psma4 (proteasome subunit alpha 4),3,low viability with and without drug,0.16,0.37,0.43,inactive
Psma4 (proteasome subunit alpha 4),4,low viability with and without drug,0.32,0.47,0.68,inactive
Prxl2c (peroxiredoxin like 2C),1,normal viability with and without drug,0.88,0.97,0.91,inactive
Prxl2c (peroxiredoxin like 2C),2,normal viability with and without drug,0.98,0.94,1.04,inactive
Prxl2c (peroxiredoxin like 2C),3,high viability only with doxorubicin,1.12,1.03,1.09,inactive
Prxl2c (peroxiredoxin like 2C),4,low viability with and without drug,0.13,0.26,0.5,inactive
Tbl1xr1 (Tbl1x/y related 1),1,normal viability with and without drug,0.73,0.79,0.92,inactive
Tbl1xr1 (Tbl1x/y related 1),2,normal viability with and without drug,1.07,1.04,1.03,inactive
Tbl1xr1 (Tbl1x/y related 1),3,normal viability with and without drug,1.06,1.05,1.01,inactive
Tbl1xr1 (Tbl1x/y related 1),4,normal viability with and without drug,0.98,0.98,1,inactive
Spata17 (spermatogenesis associated 17),1,normal viability with and without drug,1.05,1.07,0.98,inactive
Spata17 (spermatogenesis associated 17),2,normal viability with and without drug,0.98,0.99,0.99,inactive
Spata17 (spermatogenesis associated 17),3,normal viability with and without drug,1.07,1.11,0.96,inactive
Spata17 (spermatogenesis associated 17),4,normal viability with and without drug,0.97,1.03,0.94,inactive
"Polk (polymerase (DNA directed), kappa)",1,normal viability with and without drug,0.92,0.98,0.94,inactive
"Polk (polymerase (DNA directed), kappa)",2,normal viability with and without drug,1.07,1.08,0.99,inactive
"Polk (polymerase (DNA directed), kappa)",3,normal viability with and without drug,0.96,0.98,0.98,inactive
"Polk (polymerase (DNA directed), kappa)",4,normal viability with and without drug,1.06,1.06,1,inactive
Or51af1 (olfactory receptor family 51 subfamily AF member 1),1,normal viability with and without drug,0.96,0.94,1.02,inactive
Or51af1 (olfactory receptor family 51 subfamily AF member 1),2,normal viability with and without drug,1.03,0.97,1.06,inactive
Or51af1 (olfactory receptor family 51 subfamily AF member 1),3,normal viability with and without drug,0.92,0.93,0.99,inactive
Or51af1 (olfactory receptor family 51 subfamily AF member 1),4,normal viability with and without drug,0.97,0.97,1,inactive
